Measurements published in the supplement of paper PMC10849652.
This is one part of the list. Residues, ends and D or L forms follow the SMILES beside them. *: point of attachment. Cbz = O=C(OCc1ccccc1)*

Sequences of proteins named here, by UniProt entry; tags and fusion partners are left off. A change or cut given only in a name is not applied to a line headed by its entry.
UniProt P49189: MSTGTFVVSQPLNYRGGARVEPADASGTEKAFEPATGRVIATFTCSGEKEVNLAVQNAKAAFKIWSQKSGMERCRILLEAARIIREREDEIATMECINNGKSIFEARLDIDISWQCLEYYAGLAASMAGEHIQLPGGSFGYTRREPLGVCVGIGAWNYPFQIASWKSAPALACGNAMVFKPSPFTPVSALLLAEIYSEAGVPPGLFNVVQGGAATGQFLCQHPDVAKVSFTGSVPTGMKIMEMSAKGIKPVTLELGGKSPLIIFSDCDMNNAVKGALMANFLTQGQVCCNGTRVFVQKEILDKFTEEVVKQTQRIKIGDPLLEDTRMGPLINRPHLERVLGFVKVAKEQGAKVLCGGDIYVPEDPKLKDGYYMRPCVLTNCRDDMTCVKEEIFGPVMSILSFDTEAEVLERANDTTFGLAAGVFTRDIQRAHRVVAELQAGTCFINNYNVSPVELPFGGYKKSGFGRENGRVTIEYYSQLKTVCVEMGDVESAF
UniProt Q96F25: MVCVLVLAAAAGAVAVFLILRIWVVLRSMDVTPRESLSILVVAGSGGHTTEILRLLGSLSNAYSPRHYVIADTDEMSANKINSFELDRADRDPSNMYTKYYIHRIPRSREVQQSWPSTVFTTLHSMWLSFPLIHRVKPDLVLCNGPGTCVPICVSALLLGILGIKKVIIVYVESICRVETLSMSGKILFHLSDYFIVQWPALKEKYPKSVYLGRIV
UniProt P51648: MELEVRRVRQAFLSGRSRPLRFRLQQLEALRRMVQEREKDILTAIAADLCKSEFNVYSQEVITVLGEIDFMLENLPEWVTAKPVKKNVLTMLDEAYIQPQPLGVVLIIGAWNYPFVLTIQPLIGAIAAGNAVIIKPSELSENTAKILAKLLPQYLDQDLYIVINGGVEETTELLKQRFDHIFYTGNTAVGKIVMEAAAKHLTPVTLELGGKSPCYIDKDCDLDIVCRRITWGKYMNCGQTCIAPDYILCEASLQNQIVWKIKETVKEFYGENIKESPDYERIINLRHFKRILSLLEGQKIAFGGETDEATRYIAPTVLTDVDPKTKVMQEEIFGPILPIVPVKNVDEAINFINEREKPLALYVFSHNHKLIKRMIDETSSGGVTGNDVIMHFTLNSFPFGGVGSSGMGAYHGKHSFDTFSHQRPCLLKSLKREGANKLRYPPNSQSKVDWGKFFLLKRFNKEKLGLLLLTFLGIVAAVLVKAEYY
UniProt P54922: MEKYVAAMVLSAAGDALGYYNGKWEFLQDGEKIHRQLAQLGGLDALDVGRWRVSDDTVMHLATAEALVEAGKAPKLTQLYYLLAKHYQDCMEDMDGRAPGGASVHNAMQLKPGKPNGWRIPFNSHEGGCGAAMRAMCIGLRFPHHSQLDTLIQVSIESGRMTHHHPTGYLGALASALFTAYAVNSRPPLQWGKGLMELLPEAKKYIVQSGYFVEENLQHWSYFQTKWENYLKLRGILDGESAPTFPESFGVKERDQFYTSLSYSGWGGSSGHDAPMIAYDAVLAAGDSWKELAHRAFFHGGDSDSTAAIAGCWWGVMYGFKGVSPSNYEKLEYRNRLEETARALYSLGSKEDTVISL
UniProt Q9BQI0: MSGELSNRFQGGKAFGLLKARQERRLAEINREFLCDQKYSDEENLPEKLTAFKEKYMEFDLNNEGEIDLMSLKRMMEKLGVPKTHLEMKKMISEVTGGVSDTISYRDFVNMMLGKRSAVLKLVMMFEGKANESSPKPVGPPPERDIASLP
UniProt P55008: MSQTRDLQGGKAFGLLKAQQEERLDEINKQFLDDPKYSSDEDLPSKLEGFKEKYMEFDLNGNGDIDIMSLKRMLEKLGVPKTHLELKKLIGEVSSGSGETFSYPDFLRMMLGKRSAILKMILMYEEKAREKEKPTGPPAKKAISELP
UniProt Q53H80, whole entry, looked up: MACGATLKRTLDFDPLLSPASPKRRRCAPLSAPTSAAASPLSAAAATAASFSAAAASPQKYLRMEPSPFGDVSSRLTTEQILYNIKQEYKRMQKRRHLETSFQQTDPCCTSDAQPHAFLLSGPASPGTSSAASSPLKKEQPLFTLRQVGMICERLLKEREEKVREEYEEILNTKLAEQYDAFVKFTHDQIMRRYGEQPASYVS
UniProt P55196: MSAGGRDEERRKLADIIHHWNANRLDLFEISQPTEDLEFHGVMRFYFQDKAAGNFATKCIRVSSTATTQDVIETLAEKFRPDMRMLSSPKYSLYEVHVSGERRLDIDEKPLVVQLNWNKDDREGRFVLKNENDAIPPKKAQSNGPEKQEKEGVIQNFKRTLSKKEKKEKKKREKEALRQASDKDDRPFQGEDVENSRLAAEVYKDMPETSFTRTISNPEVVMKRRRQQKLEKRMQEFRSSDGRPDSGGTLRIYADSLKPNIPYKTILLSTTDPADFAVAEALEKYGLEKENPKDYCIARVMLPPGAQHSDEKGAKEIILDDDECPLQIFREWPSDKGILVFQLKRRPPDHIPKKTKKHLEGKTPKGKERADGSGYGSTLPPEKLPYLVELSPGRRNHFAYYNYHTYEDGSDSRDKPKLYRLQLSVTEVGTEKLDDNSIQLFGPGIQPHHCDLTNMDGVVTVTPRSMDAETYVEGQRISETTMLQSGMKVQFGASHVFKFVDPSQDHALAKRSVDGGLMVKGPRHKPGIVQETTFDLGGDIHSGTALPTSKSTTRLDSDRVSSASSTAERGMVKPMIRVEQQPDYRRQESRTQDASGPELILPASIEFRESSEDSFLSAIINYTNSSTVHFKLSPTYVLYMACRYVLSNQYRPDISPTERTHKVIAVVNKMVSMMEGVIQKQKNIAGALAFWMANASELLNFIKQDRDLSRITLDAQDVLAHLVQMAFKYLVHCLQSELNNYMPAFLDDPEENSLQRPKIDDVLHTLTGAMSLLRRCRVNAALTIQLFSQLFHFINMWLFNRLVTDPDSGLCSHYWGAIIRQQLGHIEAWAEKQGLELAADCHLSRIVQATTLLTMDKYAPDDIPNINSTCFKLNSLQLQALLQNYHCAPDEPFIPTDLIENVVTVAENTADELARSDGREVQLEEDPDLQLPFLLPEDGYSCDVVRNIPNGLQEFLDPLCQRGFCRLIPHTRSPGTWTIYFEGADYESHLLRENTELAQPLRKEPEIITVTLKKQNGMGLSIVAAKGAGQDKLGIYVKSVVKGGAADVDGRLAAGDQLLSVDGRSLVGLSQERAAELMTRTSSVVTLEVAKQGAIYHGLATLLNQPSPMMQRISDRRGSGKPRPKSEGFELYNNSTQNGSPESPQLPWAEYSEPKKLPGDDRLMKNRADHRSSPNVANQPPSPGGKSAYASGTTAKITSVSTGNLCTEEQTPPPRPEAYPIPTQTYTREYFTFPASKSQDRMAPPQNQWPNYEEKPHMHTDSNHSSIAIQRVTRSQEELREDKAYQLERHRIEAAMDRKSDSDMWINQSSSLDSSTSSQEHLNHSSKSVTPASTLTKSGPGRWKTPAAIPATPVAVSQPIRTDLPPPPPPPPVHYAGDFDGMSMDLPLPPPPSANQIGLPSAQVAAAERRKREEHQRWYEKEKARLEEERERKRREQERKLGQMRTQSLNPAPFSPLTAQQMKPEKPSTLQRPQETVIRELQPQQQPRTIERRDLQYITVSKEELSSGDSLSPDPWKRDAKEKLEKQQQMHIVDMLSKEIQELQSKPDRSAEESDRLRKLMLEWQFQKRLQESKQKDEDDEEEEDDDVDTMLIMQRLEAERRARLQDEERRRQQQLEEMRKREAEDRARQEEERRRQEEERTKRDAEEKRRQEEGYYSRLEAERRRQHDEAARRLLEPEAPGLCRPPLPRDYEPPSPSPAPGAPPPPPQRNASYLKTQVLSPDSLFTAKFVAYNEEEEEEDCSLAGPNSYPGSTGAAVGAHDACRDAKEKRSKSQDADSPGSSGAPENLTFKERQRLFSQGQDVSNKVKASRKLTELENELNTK
UniProt Q96BT7: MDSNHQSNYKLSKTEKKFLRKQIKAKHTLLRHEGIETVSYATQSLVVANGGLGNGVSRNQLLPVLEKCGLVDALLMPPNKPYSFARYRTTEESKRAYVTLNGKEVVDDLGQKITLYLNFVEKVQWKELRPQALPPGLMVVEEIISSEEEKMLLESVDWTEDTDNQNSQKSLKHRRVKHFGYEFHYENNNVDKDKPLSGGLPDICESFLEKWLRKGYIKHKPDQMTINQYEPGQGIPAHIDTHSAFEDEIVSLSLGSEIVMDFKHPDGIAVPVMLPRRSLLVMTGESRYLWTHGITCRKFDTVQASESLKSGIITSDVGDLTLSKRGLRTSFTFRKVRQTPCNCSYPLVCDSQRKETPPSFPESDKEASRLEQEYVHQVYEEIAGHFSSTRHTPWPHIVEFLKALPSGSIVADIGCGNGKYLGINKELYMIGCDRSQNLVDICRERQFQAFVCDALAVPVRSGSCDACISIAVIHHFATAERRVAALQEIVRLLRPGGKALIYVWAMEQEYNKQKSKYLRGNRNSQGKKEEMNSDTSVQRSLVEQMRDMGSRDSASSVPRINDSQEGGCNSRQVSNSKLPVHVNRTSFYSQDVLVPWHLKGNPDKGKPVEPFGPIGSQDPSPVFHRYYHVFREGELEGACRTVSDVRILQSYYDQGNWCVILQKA
UniProt P07327: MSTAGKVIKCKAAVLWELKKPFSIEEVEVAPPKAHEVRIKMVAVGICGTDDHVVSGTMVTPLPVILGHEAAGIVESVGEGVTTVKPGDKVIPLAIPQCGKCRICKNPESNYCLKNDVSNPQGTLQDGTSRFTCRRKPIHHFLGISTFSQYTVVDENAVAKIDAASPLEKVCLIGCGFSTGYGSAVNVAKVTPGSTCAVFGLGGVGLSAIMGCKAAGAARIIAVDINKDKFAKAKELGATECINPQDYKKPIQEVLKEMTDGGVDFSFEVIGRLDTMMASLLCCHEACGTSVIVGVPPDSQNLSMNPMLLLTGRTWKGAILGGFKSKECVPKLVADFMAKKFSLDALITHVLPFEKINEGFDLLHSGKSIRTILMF
UniProt P35611: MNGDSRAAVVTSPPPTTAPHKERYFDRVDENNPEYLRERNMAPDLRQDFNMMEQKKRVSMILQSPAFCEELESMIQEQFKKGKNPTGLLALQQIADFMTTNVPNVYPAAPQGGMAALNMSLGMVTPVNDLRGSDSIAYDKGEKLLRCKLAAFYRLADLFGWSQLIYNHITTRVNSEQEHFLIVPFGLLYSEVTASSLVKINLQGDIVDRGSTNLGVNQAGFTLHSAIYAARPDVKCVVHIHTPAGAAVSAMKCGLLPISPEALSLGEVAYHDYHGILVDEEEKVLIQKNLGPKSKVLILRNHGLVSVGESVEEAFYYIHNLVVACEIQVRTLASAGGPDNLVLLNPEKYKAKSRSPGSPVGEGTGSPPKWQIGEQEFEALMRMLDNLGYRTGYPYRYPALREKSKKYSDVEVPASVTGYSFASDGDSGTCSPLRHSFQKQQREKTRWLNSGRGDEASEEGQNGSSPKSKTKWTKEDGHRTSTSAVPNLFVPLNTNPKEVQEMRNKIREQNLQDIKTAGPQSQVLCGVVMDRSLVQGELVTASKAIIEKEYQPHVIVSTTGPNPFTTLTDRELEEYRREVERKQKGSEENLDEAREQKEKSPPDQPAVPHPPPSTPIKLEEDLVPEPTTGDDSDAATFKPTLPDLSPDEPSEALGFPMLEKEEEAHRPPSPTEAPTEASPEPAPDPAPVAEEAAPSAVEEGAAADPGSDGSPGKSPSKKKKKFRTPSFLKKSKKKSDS
UniProt O43823: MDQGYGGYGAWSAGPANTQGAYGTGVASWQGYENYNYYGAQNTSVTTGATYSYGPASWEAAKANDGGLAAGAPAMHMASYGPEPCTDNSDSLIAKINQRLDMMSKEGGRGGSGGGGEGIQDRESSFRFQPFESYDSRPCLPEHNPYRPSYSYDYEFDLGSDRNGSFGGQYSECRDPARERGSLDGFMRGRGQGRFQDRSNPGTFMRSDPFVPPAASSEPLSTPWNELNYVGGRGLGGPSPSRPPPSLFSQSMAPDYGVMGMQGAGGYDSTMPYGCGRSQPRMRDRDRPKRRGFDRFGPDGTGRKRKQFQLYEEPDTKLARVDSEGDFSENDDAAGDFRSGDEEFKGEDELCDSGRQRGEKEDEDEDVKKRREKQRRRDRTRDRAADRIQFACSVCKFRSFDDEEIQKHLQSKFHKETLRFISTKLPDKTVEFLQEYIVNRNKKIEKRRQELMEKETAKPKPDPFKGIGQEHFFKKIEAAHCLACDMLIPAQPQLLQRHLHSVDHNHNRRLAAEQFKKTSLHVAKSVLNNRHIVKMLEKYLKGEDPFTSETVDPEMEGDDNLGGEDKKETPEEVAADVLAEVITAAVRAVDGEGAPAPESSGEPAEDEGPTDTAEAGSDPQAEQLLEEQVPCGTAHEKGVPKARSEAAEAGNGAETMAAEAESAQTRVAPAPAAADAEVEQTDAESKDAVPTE

Assays:
Assay in all cases: log2 fold change, soluble protein after heating vs DMSO (PISA); higher = thermal stabilisation; K562 cells, 10 uM, 30 min; active = over 0.2 and 3.5 SD of the protein, either way, in both replicates (recomputed)
IRAK-1-4 Inhibitor I = compound: C1COCCN1CCN2C3=CC=CC=C3N=C2NC(=O)C4=CC(=CC=C4)[N+](=O)[O-] [IRAK-1-4 Inhibitor I]
Procedure, shortened: (§1)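 K562 cells at 2×10^6 cells/mL were treated with 10 μM compound for 30 min. Aliquots were heated for 3 min across 48°C-58°C, pooled, and extracted in PBS with 0.5% NP-40 at 4°C; soluble protein was the supernatant after 21,000xg for 90 min. Soluble protein was quantified by TMTpro 16plex LC-MS/MS with channel sums equalised, and reported as log2 fold change in thermal stability against DMSO controls, with values from duplicates.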

ibrutinib = compound: C=CC(=O)N1CCC[C@@H](n2nc(-c3ccc(Oc4ccccc4)cc3)c3c(N)ncnc32)C1 [ibrutinib]
Procedure, shortened: as §1

[1] = compound: CC(=O)c1cnc2ccc(-c3cc(Cl)c(O)c(Cl)c3)nc2c1N[C@H]1CC[C@H](CN(C)C)CC1
Procedure, shortened: as §1

ralimetinib = compound: CC(C)(C)Cn1c(N)nc2ccc(-c3[nH]c(C(C)(C)C)nc3-c3ccc(F)cc3)nc21 [ralimetinib]
Procedure, shortened: as §1

[2] = compound: CC(C)(O)CC(=O)NCCn1ccc2ncnc(Nc3ccc(Oc4cccc(C(F)(F)F)c4)c(Cl)c3)c21
Procedure, shortened: as §1

[3] = compound: CC(C)C1=C2N=C(C=C(N2N=C1)NCC3=CC=CC=C3)NCCCCCCN
Procedure, shortened: as §1

[4] = compound: CC(C)C[C@@H](C=O)NC(=O)[C@H](CC(C)C)NC(=O)[C@H](CC(C)C)NC(=O)OCc1ccccc1
Procedure, shortened: as §1

pinometostat = compound: CC(C)N(C[C@H]1O[C@@H](n2cnc3c(N)ncnc32)[C@H](O)[C@@H]1O)[C@H]1C[C@@H](CCc2nc3cc(C(C)(C)C)ccc3[nH]2)C1 [pinometostat]
Procedure, shortened: as §1

[5] = compound: CC1=C(C2=C(C=C1)C(=O)C3=CC=CC=C3N2CCCN)C
Procedure, shortened: as §1

[6] = compound: CC1=C(C(CC(=O)N1)C2=CC=C(C=C2)C(F)(F)F)C(=O)NC3=C(C=C4C(=C3)C=NN4)F
Procedure, shortened: as §1

Measured: log2 fold change

ADD2 (UniProt P35612)
inactive: IRAK-1-4 Inhibitor I 0.04 | ibrutinib 0.009 | [1] -0.172 | ralimetinib -0.021 | [2] -0.004 | [3] 0.042 | [4] -0.024 | pinometostat -0.015 | [5] 0.029

ALKBH5 (UniProt Q6P6C2)
inactive: IRAK-1-4 Inhibitor I 0.015 | ibrutinib 0.05 | [1] 0.053 | ralimetinib 0.049 | [2] 0.025 | [3] 0.198 | [4] -0.016 | pinometostat -0.013 | [5] 0.086

AGPAT5 (UniProt Q9NUQ2)
inactive: IRAK-1-4 Inhibitor I 0.047 | ibrutinib 0.003 | [1] 0.062 | ralimetinib -0.037 | [2] 0.03 | [3] -0.163 | [4] 0.002 | pinometostat 0.007 | [5] 0.021

AIP (UniProt O00170)
inactive: IRAK-1-4 Inhibitor I 0 | ibrutinib -0.047 | [1] 0.007 | ralimetinib 0.006 | [2] -0.094 | [3] -0.074 | [4] -0.018 | pinometostat -0.027 | [5] -0.026

ADD3 (UniProt Q9UEY8)
active: [1] -0.29
inactive: IRAK-1-4 Inhibitor I 0.063 | ibrutinib 0.025 | ralimetinib -0.011 | [2] 0.008 | [3] 0.097 | [4] 0.018 | pinometostat -0.034 | [5] 0.014

AMD1 (UniProt P17707)
inactive: IRAK-1-4 Inhibitor I -0.018 | ibrutinib -0.043 | [1] -0.086 | [2] -0.031 | [3] -0.073 | [4] 0.276 | pinometostat -0.025 | [5] 0.051
active: ralimetinib -0.307

ALDH18A1 (UniProt P54886)
active: [2] -0.497
inactive: IRAK-1-4 Inhibitor I 0 | ibrutinib -0.098 | [1] 0 | ralimetinib -0.057 | [3] -0.269 | [4] 0 | pinometostat -0.053 | [5] 0.184

ALDH9A1 isoform 3 (UniProt P49189)
inactive: IRAK-1-4 Inhibitor I 0.059 | ibrutinib 0.025 | [1] 0.003 | ralimetinib -0.047 | [2] -0.004 | [3] 0.019 | [4] -0.022 | pinometostat -0.013 | [5] -0.003

AGPAT3 isoform 3 (UniProt Q9NRZ7)
inactive: IRAK-1-4 Inhibitor I 0.012 | ibrutinib 0 | [1] -0.024 | ralimetinib -0.02 | [2] -0.001 | [3] -0.071 | [4] -0.001 | pinometostat 0.034 | [5] 0.03

AGO1 (UniProt Q9UL18)
inactive: IRAK-1-4 Inhibitor I 0.02 | ibrutinib 0.05 | [1] 0.019 | ralimetinib -0.023 | [2] -0.001 | [3] -0.01 | [4] 0.07 | pinometostat 0.061 | [5] 0.076

ALG14 (UniProt Q96F25)
inactive: IRAK-1-4 Inhibitor I 0.007 | ibrutinib 0.104 | [1] -0.157 | ralimetinib -0.12 | [2] -0.115 | [3] -0.098 | [4] 0.093 | pinometostat 0.038 | [5] 0.195

ALDH3A2 isoform 2 (UniProt P51648)
inactive: IRAK-1-4 Inhibitor I 0.158 | ibrutinib 0.086 | [3] -0.177 | pinometostat -0.008

Reprinted from the entries so far (3 entries):
AGO1 (UniProt Q9UL18)
inactive: IRAK-1-4 Inhibitor I 0.02 | ibrutinib 0.05 | [1] 0.019 | ralimetinib -0.023 | [2] -0.001 | [3] -0.01 | [4] 0.07 | pinometostat 0.061 | [5] 0.076

ALG14 (UniProt Q96F25)
inactive: IRAK-1-4 Inhibitor I 0.007 | ibrutinib 0.104 | [1] -0.157 | ralimetinib -0.12 | [2] -0.115 | [3] -0.098 | [4] 0.093 | pinometostat 0.038 | [5] 0.195

ALDH3A2 isoform 2 (UniProt P51648)
inactive: IRAK-1-4 Inhibitor I 0.158 | ibrutinib 0.086 | [3] -0.177 | pinometostat -0.008

More records follow.

ADCK5 (UniProt Q3MIX3)
inactive: IRAK-1-4 Inhibitor I -0.067 | ralimetinib 0.027 | [2] -0.041 | [3] 0.059 | [4] 0.098 | pinometostat -0.043 | [5] -0.052

AGTPBP1 isoform 3 (UniProt Q9UPW5)
inactive: IRAK-1-4 Inhibitor I 0.046 | ralimetinib 0.101 | [4] -0.009 | pinometostat -0.034

ALDH2 (UniProt P05091)
inactive: IRAK-1-4 Inhibitor I 0.005 | ibrutinib 0.002 | [1] -0.005 | ralimetinib -0.086 | [2] -0.037 | [3] 0.018 | [4] -0.032 | pinometostat -0.034 | [5] 0.063

AKAP11 (UniProt Q9UKA4)
inactive: IRAK-1-4 Inhibitor I -0.019 | pinometostat 0.046

ADPRH (UniProt P54922)
inactive: IRAK-1-4 Inhibitor I 0.056 | ibrutinib 0.001 | ralimetinib -0.003 | [2] -0.084 | [3] 0.107 | [4] -0.033 | pinometostat 0.021 | [5] 0.037

AIF1L isoform 2 (UniProt Q9BQI0)
inactive: ibrutinib 0.014 | [1] -0.029 | ralimetinib -0.024 | [2] -0.197 | [3] -0.017 | [4] 0.009 | [6] -0.082

ADCY3 (UniProt O60266)
inactive: IRAK-1-4 Inhibitor I -0.034 | [1] -0.168 | ralimetinib -0.038 | [3] -0.132 | [4] 0.076 | pinometostat 0.109 | [5] 0.171

ADGRV1 (UniProt Q8WXG9)
inactive: IRAK-1-4 Inhibitor I -0.08 | ibrutinib -0.111 | [2] 0.018 | pinometostat 0.107 | [6] 0.119

ALG12 (UniProt Q9BV10)
inactive: IRAK-1-4 Inhibitor I 0.036 | ibrutinib 0.054 | [1] -0.05 | [2] 0.041 | [3] 0.065 | pinometostat -0.013 | [5] -0.113

AMOTL1 (UniProt Q8IY63)
inactive: ibrutinib -0.074

ADIPOR1 (UniProt Q96A54)
inactive: IRAK-1-4 Inhibitor I -0.077 | ibrutinib -0.076 | ralimetinib -0.062 | [2] -0.065 | [3] -0.161 | [4] 0.223 | pinometostat 0.188 | [6] -0.033

AGAP1 (UniProt Q9UPQ3)
inactive: IRAK-1-4 Inhibitor I -0.109 | ralimetinib -0.125 | [3] -0.232 | [4] 0.186 | pinometostat 0.01

AEBP2 (UniProt Q6ZN18)
inactive: IRAK-1-4 Inhibitor I -0.13 | ibrutinib -0.113 | [2] -0.018 | [3] 0.404 | pinometostat -0.107

ANAPC15 isoform 2 (UniProt P60006)
inactive: IRAK-1-4 Inhibitor I 0.163 | [1] 0.097 | [3] 0.054 | pinometostat -0.035 | [5] -0.164

AIF1 (UniProt P55008)
inactive: ibrutinib 0.012 | [1] 0.028 | ralimetinib -0.112 | [2] 0.035 | [3] -0.033 | [4] 0.07

AKIRIN2 (UniProt Q53H80)
inactive: IRAK-1-4 Inhibitor I 0.036 | [1] -0.194 | ralimetinib -0.05 | [2] 0.43 | [3] -0.018 | [4] 0.258 | pinometostat 0.044 | [6] 0.058 | [5] -0.024

AFDN isoform 5 (UniProt P55196)
inactive: IRAK-1-4 Inhibitor I -0.018 | ibrutinib -0.012 | [1] -0.19 | ralimetinib -0.002 | [2] -0.125 | [3] -0.082 | [4] 0.01 | pinometostat 0.004 | [5] 0.049

ALKBH8 isoform 4 (UniProt Q96BT7)
inactive: IRAK-1-4 Inhibitor I 0.123 | ibrutinib 0.079 | [2] -0.136 | pinometostat -0.1

ADH1A (UniProt P07327)
inactive: IRAK-1-4 Inhibitor I 0.079 | pinometostat 0.004

ALDOC (UniProt J3QKP5)
inactive: IRAK-1-4 Inhibitor I 0.014 | ibrutinib 0.205 | [1] -0.185 | ralimetinib -0.091 | [2] 0.001 | [4] 0.23 | pinometostat 0.045 | [6] 0.147 | [5] 0.155

ADD1 isoform 4 (UniProt P35611)
inactive: IRAK-1-4 Inhibitor I -0.21 | ibrutinib 0.029 | [2] -0.117 | pinometostat 0.122

AKAP8 (UniProt O43823)
inactive: IRAK-1-4 Inhibitor I 0.058 | ibrutinib 0.002 | [1] -0.205 | ralimetinib -0.018 | [2] -0.097 | [3] 0.019 | [4] 0.054 | pinometostat 0.003 | [5] -0.113
